# PMC4530474, “Carbohydrate scaffolds as glycosyltransferase inhibitors with in vivo antibacterial activity” (Nature Communications, 2015)
# What was measured:
# E. faecalis VanA, ci = assay: MIC determination (broth microdilution); conditions: Enterococcus faecalis
# E. coli ATCC 25922 = assay: MIC determination (broth microdilution); conditions: Escherichia coli, ATCC25922
smiles,measurement,setting,value
"CN[C@H](CC(C)C)C(=O)N[C@H]1C(=O)N[C@@H](CC(N)=O)C(=O)N[C@H]2C(=O)N[C@H]3C(=O)N[C@H](C(=O)N[C@H](C(=O)O)c4cc(O)cc(O)c4-c4cc3ccc4O)[C@H](O)c3ccc(c(Cl)c3)Oc3cc2cc(c3O[C@@H]2O[C@H](CO)[C@@H](O)[C@H](O)[C@H]2O[C@H]2C[C@](C)(N)[C@H](O)[C@H](C)O2)Oc2ccc(cc2Cl)[C@H]1O [Vancomycin, reference compound]",MIC,"E. faecalis VanA, ci",> 64 µg/mL
same,MIC,E. coli ATCC 25922,> 64 µg/mL
